{"sequences": {"note": "By UniProt entry, the sequences of proteins in these tests, tags left out. Where a name states a change or a piece, a line headed by the entry shows the natural chain unless it says otherwise.", "UniProt Q9Y2G5": "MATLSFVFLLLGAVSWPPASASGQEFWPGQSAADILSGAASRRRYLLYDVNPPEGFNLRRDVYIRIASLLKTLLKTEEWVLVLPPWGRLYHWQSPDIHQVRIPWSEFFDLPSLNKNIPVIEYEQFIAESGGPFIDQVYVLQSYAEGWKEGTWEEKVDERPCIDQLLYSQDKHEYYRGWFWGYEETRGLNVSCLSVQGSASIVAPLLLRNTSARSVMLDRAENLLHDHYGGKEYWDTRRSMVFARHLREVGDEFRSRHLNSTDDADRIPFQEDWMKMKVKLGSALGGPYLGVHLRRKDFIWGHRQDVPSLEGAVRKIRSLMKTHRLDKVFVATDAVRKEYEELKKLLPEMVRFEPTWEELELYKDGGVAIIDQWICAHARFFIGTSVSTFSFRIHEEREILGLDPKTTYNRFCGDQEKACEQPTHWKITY", "UniProt Q9BUI4": "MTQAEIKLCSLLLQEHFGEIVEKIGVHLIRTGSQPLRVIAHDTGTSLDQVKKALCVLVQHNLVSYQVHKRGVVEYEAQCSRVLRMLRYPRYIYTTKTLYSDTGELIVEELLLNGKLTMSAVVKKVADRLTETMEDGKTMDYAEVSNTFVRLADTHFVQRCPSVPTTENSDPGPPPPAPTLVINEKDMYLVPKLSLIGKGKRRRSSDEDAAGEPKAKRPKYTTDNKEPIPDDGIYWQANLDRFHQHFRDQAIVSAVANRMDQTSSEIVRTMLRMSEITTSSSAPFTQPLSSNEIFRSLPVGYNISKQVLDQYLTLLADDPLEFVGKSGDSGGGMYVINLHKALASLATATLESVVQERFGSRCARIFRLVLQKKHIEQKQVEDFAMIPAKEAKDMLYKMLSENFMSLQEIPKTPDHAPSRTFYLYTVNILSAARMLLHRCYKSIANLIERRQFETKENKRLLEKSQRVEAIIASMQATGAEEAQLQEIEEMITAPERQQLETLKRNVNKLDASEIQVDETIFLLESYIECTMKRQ", "UniProt O75688": "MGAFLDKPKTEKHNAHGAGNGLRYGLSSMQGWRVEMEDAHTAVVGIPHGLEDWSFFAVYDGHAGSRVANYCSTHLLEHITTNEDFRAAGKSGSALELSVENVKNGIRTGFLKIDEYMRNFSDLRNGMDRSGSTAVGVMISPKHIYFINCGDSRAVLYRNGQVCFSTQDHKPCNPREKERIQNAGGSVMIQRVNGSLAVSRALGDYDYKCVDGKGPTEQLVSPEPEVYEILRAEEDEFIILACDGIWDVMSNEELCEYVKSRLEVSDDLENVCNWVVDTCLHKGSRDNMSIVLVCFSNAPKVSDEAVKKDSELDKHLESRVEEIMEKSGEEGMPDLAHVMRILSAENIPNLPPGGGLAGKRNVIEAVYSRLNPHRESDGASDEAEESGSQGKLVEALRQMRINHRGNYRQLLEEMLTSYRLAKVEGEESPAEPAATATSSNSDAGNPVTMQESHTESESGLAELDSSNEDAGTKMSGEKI", "UniProt Q6P1K2": "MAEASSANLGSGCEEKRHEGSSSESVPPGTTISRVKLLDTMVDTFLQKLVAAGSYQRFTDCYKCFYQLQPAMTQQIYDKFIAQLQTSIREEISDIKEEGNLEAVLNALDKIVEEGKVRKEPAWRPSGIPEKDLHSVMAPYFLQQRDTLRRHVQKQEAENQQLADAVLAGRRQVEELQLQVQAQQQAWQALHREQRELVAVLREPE", "UniProt Q9UHN1": "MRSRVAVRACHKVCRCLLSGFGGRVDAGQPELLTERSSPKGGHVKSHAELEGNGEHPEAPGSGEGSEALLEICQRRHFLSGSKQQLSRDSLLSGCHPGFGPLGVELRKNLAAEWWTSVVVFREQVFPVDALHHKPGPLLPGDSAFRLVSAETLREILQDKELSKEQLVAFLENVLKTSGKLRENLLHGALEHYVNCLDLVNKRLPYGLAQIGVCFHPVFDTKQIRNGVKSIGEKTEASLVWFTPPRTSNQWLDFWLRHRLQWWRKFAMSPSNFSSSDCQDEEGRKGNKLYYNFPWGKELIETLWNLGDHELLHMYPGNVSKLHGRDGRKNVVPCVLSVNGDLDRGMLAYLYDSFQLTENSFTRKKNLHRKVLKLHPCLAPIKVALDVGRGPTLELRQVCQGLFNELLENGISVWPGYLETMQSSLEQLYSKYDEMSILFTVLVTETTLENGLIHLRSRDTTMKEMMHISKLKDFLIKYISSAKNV", "UniProt O15031": "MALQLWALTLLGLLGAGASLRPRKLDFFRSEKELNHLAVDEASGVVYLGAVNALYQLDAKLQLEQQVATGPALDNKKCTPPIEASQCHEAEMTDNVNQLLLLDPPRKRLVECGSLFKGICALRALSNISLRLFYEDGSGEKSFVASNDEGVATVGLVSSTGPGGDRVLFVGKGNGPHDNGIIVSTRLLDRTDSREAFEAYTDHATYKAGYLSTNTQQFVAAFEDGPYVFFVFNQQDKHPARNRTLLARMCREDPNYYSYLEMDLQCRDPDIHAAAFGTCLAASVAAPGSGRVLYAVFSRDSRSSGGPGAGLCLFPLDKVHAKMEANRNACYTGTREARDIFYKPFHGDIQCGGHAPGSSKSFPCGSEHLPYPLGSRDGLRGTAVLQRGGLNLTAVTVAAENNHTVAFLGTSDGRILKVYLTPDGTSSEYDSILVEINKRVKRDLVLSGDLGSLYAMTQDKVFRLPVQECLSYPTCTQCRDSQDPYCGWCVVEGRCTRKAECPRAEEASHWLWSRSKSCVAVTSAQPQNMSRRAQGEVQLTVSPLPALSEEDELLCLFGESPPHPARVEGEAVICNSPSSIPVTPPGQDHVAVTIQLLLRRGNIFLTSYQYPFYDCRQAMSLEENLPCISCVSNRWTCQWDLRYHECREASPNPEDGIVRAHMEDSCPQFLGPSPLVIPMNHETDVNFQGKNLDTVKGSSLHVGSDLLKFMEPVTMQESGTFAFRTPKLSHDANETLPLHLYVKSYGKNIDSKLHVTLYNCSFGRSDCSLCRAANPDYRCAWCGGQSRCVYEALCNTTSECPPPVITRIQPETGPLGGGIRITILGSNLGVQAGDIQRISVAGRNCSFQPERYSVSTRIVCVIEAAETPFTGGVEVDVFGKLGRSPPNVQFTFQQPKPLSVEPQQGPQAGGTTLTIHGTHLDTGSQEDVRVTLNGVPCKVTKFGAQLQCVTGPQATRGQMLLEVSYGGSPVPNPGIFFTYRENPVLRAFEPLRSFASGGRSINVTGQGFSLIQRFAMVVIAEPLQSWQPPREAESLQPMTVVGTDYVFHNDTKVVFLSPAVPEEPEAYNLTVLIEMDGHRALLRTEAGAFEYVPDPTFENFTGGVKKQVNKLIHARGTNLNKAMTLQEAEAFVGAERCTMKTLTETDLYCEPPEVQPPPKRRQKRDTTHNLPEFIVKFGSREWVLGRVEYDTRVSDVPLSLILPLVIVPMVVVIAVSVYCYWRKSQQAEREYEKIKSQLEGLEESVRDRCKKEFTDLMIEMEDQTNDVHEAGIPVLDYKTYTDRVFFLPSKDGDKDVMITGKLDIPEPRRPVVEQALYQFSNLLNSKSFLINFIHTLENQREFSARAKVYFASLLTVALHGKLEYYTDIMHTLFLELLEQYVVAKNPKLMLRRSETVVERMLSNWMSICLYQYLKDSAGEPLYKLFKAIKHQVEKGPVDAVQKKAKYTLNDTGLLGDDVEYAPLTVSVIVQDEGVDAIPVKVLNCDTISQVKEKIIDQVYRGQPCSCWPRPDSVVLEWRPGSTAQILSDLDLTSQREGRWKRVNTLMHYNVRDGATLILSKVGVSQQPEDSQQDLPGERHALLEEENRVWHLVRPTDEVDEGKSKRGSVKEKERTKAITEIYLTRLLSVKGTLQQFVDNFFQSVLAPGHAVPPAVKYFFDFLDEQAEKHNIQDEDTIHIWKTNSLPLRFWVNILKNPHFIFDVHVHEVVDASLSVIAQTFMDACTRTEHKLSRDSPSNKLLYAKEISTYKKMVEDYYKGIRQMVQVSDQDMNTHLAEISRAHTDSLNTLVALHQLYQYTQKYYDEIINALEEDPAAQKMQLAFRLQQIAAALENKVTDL", "UniProt O75817": "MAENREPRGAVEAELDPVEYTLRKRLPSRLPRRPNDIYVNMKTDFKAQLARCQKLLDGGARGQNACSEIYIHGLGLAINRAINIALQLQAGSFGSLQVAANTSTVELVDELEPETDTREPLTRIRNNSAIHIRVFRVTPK", "UniProt Q9NQ55": "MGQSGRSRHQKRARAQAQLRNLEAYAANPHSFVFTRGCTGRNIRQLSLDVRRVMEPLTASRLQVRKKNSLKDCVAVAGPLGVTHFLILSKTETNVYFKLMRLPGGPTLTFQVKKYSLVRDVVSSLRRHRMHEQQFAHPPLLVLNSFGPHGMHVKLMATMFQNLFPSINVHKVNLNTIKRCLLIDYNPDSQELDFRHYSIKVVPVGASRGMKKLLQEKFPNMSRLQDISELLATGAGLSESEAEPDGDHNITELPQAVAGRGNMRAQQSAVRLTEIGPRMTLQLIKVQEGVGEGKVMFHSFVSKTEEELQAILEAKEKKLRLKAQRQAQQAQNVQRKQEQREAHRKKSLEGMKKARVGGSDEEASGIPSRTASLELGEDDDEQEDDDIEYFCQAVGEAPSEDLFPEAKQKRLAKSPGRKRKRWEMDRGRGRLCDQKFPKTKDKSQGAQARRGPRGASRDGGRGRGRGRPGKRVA", "UniProt Q969H6": "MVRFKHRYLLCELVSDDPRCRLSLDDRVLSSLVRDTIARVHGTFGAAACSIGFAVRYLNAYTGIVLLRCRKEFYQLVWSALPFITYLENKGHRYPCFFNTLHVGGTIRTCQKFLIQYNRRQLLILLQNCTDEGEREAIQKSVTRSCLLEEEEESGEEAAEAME", "UniProt Q9Y2S7": "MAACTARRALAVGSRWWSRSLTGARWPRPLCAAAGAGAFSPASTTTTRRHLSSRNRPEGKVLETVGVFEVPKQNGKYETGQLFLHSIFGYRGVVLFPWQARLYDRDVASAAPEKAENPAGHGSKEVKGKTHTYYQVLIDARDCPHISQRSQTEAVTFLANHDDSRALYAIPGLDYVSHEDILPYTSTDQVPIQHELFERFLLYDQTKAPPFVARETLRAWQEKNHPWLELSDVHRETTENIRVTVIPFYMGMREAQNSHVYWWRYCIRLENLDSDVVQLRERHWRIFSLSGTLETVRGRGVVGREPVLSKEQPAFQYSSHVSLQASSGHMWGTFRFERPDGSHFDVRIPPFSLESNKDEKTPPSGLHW", "UniProt Q96CD2": "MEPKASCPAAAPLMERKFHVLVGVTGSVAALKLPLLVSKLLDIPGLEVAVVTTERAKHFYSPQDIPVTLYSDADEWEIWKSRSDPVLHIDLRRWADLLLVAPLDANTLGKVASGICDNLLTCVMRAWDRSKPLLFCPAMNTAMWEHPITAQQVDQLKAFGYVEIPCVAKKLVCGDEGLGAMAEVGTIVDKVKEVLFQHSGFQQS", "UniProt Q6UW63": "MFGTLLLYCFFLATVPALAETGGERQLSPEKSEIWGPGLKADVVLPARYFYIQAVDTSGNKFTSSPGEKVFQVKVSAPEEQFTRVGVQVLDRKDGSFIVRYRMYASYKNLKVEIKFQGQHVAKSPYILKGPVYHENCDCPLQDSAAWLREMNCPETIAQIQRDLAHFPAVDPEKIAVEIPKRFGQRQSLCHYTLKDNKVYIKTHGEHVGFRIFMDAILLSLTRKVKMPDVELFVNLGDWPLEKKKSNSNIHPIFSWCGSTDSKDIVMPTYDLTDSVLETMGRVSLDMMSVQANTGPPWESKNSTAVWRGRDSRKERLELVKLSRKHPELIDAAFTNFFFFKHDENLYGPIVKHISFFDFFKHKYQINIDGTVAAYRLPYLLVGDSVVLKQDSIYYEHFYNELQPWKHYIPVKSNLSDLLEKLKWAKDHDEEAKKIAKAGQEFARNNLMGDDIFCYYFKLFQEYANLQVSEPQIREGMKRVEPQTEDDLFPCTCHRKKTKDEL", "UniProt Q9H1D9": "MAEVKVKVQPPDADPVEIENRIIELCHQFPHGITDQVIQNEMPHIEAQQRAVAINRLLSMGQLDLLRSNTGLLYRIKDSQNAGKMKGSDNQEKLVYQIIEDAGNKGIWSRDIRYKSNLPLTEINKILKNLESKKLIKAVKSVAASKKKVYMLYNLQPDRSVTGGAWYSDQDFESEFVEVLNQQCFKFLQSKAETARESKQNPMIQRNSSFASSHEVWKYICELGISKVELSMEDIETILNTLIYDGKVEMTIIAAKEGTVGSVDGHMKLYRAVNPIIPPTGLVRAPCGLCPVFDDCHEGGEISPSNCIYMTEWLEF", "UniProt Q9UNP9": "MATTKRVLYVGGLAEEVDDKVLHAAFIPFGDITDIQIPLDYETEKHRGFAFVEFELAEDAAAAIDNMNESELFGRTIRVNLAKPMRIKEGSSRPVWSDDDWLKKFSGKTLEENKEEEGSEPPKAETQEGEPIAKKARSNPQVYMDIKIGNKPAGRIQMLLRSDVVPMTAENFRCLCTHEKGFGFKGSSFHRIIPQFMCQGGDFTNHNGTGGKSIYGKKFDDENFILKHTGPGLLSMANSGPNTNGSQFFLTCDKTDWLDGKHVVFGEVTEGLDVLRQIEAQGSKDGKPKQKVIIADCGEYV"}, "source": "the supplement of paper PMC10849652", "note": "Some of the results follow."}
{"compound": "CS(=O)(=O)CCNCc1ccc(-c2ccc3ncnc(Nc4ccc(OCc5cccc(F)c5)c(Cl)c4)c3c2)o1 [lapatinib]", "assay": "log2 fold change, soluble protein after heating vs DMSO (PISA); higher = thermal stabilisation; K562 cells, 10 uM, 30 min; active = over 0.2 and 3.5 SD of the protein, either way, in both replicates (recomputed)", "method_in_brief": "(§1)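 K562 cells (2×10^6 cells/mL) were treated with 10 μM compound for 30 min, and aliquots were heated for 3 min over 48°C-58°C. Pooled aliquots were extracted in PBS with 0.5% NP-40 at 4°C, and the supernatant after 21,000xg for 90 min was measured by TMTpro 16plex LC-MS/MS with channel sums equalised. Reported thermal stability, relative to control samples and from duplicates, is a log2 fold change.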"}
{"target": "POFUT2 (UniProt Q9Y2G5)", "log2 fold change": "inactive: -0.041"}
{"target": "PPIA (UniProt P62937)", "log2 fold change": "inactive: -0.019"}
{"target": "POLR3C (UniProt Q9BUI4)", "log2 fold change": "inactive: -0.013"}
{"target": "POFUT1 (UniProt Q9H488)", "log2 fold change": "inactive: -0.04"}
{"target": "PPM1B (UniProt O75688)", "log2 fold change": "inactive: 0.017"}
{"target": "PPIP5K2 (UniProt O43314)", "log2 fold change": "inactive: -0.032"}
{"target": "PNPO (UniProt Q9NVS9)", "log2 fold change": "inactive: -0.069"}
{"target": "POLDIP3 (UniProt Q9BY77)", "log2 fold change": "inactive: 0.039"}
{"target": "PPFIA1 (UniProt Q13136)", "log2 fold change": "inactive: 0.024"}
{"target": "PMF1 (UniProt Q6P1K2)", "log2 fold change": "inactive: 0.014"}
{"target": "POLG2 (UniProt Q9UHN1)", "log2 fold change": "inactive: -0.042"}
{"target": "PLOD3 (UniProt O60568)", "log2 fold change": "inactive: 0.039"}
{"target": "PLXNB2 (UniProt O15031)", "log2 fold change": "inactive: 0.017"}
{"target": "PNO1 (UniProt Q9NRX1)", "log2 fold change": "inactive: 0.031"}
{"target": "PLIN3 (UniProt O60664)", "log2 fold change": "inactive: -0.01"}
{"target": "POMGNT1 isoform 2 (UniProt Q8WZA1)", "log2 fold change": "inactive: -0.102"}
{"target": "POP7 (UniProt O75817)", "log2 fold change": "inactive: 0.062"}
{"target": "PPAT (UniProt Q06203)", "log2 fold change": "inactive: -0.04"}
{"target": "PPAN isoform 3 (UniProt Q9NQ55)", "log2 fold change": "inactive: 0.097"}
{"target": "PPA2 (UniProt Q9H2U2)", "log2 fold change": "inactive: -0.041"}
{"target": "POP5 (UniProt Q969H6)", "log2 fold change": "inactive: 0.025"}
{"target": "POSTN (UniProt Q15063)", "log2 fold change": "inactive: -0.058"}
{"target": "POLDIP2 (UniProt Q9Y2S7)", "log2 fold change": "inactive: -0.008"}
{"target": "PPCDC (UniProt Q96CD2)", "log2 fold change": "inactive: 0.027"}
{"target": "POLR2H (UniProt P52434)", "log2 fold change": "inactive: -0.053"}
{"target": "POGLUT2 (UniProt Q6UW63)", "log2 fold change": "inactive: 0.071"}
{"target": "POLR3F (UniProt Q9H1D9)", "log2 fold change": "inactive: 0.134"}
{"target": "PPA1 (UniProt Q15181)", "log2 fold change": "inactive: 0.003"}
{"target": "POTEF (UniProt A5A3E0)", "log2 fold change": "inactive: 0.015"}
{"target": "POU2F1 isoform 6 (UniProt P14859)", "log2 fold change": "inactive: 0.19"}
{"target": "PNKD isoform 2 (UniProt Q8N490)", "log2 fold change": "inactive: -0.086"}
{"target": "PPIF (UniProt P30405)", "log2 fold change": "inactive: -0.045"}
{"target": "PPIE (UniProt Q9UNP9)", "log2 fold change": "inactive: -0.019"}
{"compound": "CS(=O)(=O)N1CCN(Cc2cc3nc(-c4cccc5[nH]ncc45)nc(N4CCOCC4)c3s2)CC1 [pictilisib]", "assay": "log2 fold change, soluble protein after heating vs DMSO (PISA); higher = thermal stabilisation; K562 cells, 10 uM, 30 min; active = over 0.2 and 3.5 SD of the protein, either way, in both replicates (recomputed)", "method_in_brief": "as §1"}
{"target": "POFUT2 (UniProt Q9Y2G5)", "log2 fold change": "inactive: -0.017"}
{"target": "PPIA (UniProt P62937)", "log2 fold change": "inactive: 0.012"}
{"target": "POLR3C (UniProt Q9BUI4)", "log2 fold change": "inactive: 0.069"}
{"target": "POFUT1 (UniProt Q9H488)", "log2 fold change": "inactive: 0.038"}
{"target": "PPM1B (UniProt O75688)", "log2 fold change": "inactive: 0.062"}
{"target": "PPIP5K2 (UniProt O43314)", "log2 fold change": "inactive: 0.095"}
{"target": "PNPO (UniProt Q9NVS9)", "log2 fold change": "inactive: -0.073"}
{"target": "POLDIP3 (UniProt Q9BY77)", "log2 fold change": "inactive: -0.05"}
{"target": "PPFIA1 (UniProt Q13136)", "log2 fold change": "inactive: 0.037"}
{"target": "PMF1 (UniProt Q6P1K2)", "log2 fold change": "inactive: 0.074"}
{"target": "POLG2 (UniProt Q9UHN1)", "log2 fold change": "inactive: 0.012"}
{"target": "PLOD3 (UniProt O60568)", "log2 fold change": "inactive: 0"}
{"target": "PLXNB2 (UniProt O15031)", "log2 fold change": "inactive: 0.006"}
{"target": "PNO1 (UniProt Q9NRX1)", "log2 fold change": "inactive: -0.24"}
{"target": "PLIN3 (UniProt O60664)", "log2 fold change": "inactive: 0.008"}
{"target": "POMGNT1 isoform 2 (UniProt Q8WZA1)", "log2 fold change": "inactive: 0.101"}
{"target": "POP7 (UniProt O75817)", "log2 fold change": "inactive: -0.049"}
{"target": "PPAT (UniProt Q06203)", "log2 fold change": "inactive: 0.028"}
{"target": "PPAN isoform 3 (UniProt Q9NQ55)", "log2 fold change": "inactive: -0.088"}
{"target": "PPA2 (UniProt Q9H2U2)", "log2 fold change": "inactive: 0.102"}
{"target": "POP5 (UniProt Q969H6)", "log2 fold change": "inactive: -0.126"}
{"target": "POSTN (UniProt Q15063)", "log2 fold change": "inactive: -0.052"}
{"target": "POLDIP2 (UniProt Q9Y2S7)", "log2 fold change": "inactive: 0.015"}
{"target": "PPCDC (UniProt Q96CD2)", "log2 fold change": "inactive: 0.11"}
{"target": "POLR2H (UniProt P52434)", "log2 fold change": "inactive: -0.041"}
{"target": "POGLUT2 (UniProt Q6UW63)", "log2 fold change": "inactive: 0.051"}
{"target": "POLR3F (UniProt Q9H1D9)", "log2 fold change": "inactive: -0.056"}
{"target": "PPA1 (UniProt Q15181)", "log2 fold change": "inactive: 0.072"}
{"target": "POTEF (UniProt A5A3E0)", "log2 fold change": "inactive: 0.013"}
{"target": "POU2F1 isoform 6 (UniProt P14859)", "log2 fold change": "inactive: -0.025"}
{"target": "PNKD isoform 2 (UniProt Q8N490)", "log2 fold change": "inactive: 0.052"}
{"target": "PPIF (UniProt P30405)", "log2 fold change": "inactive: 0.012"}
{"target": "PPIE (UniProt Q9UNP9)", "log2 fold change": "inactive: 0.01"}
